Assay results from doi:10.1101/2021.06.01.446672.
No constants are given. Whether binding was seen depends on the method and setting.

Target: T1, Photoactive yellow protein from Halorhodospira halophila (Hh-PYP) (Halorhodospira halophila) (UniProt P16113)
T1 sequence (chain, chromophore, p-coumaric acid): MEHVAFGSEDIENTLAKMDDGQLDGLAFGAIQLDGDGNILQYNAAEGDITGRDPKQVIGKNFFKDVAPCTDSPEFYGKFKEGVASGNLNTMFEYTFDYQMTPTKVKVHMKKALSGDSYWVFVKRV
Experiment: transient grating

Question: With “PYP-binding protein (PBP) from Rhodobacter capsulatus (from UniProt D5AR21)” as the substance, how does the binding read?
Answer: Its binding is “no binding”.
